# Among all 31,000 sequences or so, about 1,400 (4.5%) were called active.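 Rule for the calls: active = median seed-adjusted z-score above 1 or below -1; inactive = the rest.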 The list shows a part of the results.
# Assay: Novel Modifiers of Survival Motor Neuron (SMN) Protein: Gene Identification via Genome-wide siRNA Screen;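 note: luminescence tracks full-length SMN protein made from the SMN2 reporter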
# Conditions: HEK293T SMN2-luciferase reporter, siRNA knockdown, 72 h; actives lie on both sides
# Summary of the method: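 Genome-wide siRNA screen (10418 genes, 3 siRNAs each, 1 pmol per well) by reverse transfection in HEK293T cells stably carrying an SMN2-luciferase reporter; luminescence after 72 hours, normalized to negative-control siRNA, log10-transformed, MAD-scored.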
row,Sequence,median seed-adjusted z-score
1,GCCUGUCUGUUGUUGGACATT against SLC7A6,inactive: -0.0877
2,GUUACAUUAUGAACGGUAUTT against NSF,inactive: -0.0728
3,GCUCAUUUGCGAACGGAUUTT against DUT,inactive: -0.0833
4,AGAUGAUCGGAGGCCUGUATT against HK3,inactive: 0.0759
5,GCAAGAUGCUAUCCAUGCATT against ATN1,inactive: -0.357
6,CCAUGGGAAUGGUGGAUAUTT against SERPINB3,inactive: -0.373
7,GAGUGACUGUAGAGCCUCATT against GCS1,inactive: 0.819
8,UGUUGAACAUGGAAUAAUATT against EFHA1,inactive: 0.0629
9,AAUGUAUCCUGAUUACUUUTT against NDUFB9,inactive: -0.982
10,CGUUUUAGGUGGAAGACUATT against TRMT11,inactive: -0.707
11,GGGUGAAGUUCUACAUGCATT against AIFM3,inactive: -0.727
12,GGUGUUGAGUUUCUGCAAATT against CHMP1A,inactive: 0
13,GAGAUAGACUUGCUGAGCATT against TRIP6,active: 1.03
14,ACCUGACCGUGUCGCUAUATT against DHRSX,inactive: -0.686
15,AGCGGUCCCGAACCAGUUATT against HOXC5,inactive: 0.507
16,CCAUAUAUCCGAAUGACCATT against RBM22,inactive: 0.0259
17,AAACCCAUCUAUUCCUACATT against FOXN1,inactive: 0.226
18,GGAUGUGAAGAGUAGUAAATT against ARAP2,inactive: 0.388
19,AAAGAGAGGGUACAACUAATT against GPATCH4,inactive: -0.519
20,GGACAGUACCAUUCGCCUATT against ACOXL,inactive: 0.53
21,ACUUGAAUCUUAGCAUUCATT against RAD9A,inactive: -0.0564
22,GGACAGUAGUGUGCAACGATT against LRIT1,inactive: -0.611

row,Sequence,median seed-adjusted z-score
1,AGAACAAGCUUAUCACUGUTT against TUSC4,inactive: 0.312
2,CCUGUUUGAUAAAAGAAUATT against SFRS2,inactive: 0.263
3,CCUCUAACCUCAAAGCGAUTT against SYT3,inactive: 0.221
4,GGACUAUCUAAAACAAUAATT against ALCAM,inactive: -0.743
5,GGAACAAGCUGUGAUCCCATT against OTUD7B,inactive: 0.226
6,GGAUCGUGGGAGCUAAGAATT against ZNF512,inactive: -0.675
7,CCCAUGUCAUGGAUGCCUGTT against NSUN5C,inactive: -0.153
8,CGUAUUAUAUGAAACGGAATT against GUCY1A3,inactive: 0.187
9,GAAACGGGCUUAUAGCAAATT against EPHB1,inactive: -0.0232
10,GCCGAUUCUCAGUAAGUUATT against LCP2,inactive: -0.826
11,AAAGCAAGCUGUUACAAAATT against ACAT2,active: 1.25
12,GUCCGAGCCCUGAAGAACATT against NACA,inactive: 0.117
13,GACCAUUCGUACUCCUUGUTT against THAP11,active: -1.36
14,GUAUGAGUGUGACCGGGAATT against MRC2,active: -1.34
15,GGAUUAUCAUGUAGUCCUATT against MEX3C,inactive: 0.0977
16,GGUGAUGACUGCUUGAUGATT against PSKH1,active: -2.03
17,GGAUUCUCCACAAUCAAUATT against PCMT1,inactive: 0.139
18,GGAAAGAACUACCUCCUGATT against TREH,inactive: 0.396
19,GGAGAUCUGCUACUAAACATT against PSMD6,active: -1.03
20,CUAUCUAUCUGGAAUCAGUTT against KDELR3,inactive: 0.476
21,CCACGAGACUUGAACUUCATT against ANGPT2,inactive: -0.163
22,UCUGAAUACCAAAUACUAATT against FCGR1A,inactive: 0.869

row,Sequence,median seed-adjusted z-score
1,CCAUCGAGUUCAUCGAUAATT against DUSP8,inactive: -0.0326
2,GGAGUGCGAUGGACAAUUUTT against LCT,inactive: 0.411
3,CCUACAAUUUGGAUACAGATT against P4HA1,inactive: -0.293
4,GAAUCUGACUAUACCAACATT against LOX,inactive: -0.175
5,ACAUCAAAACACCAGCUUUTT against YBX2,inactive: 0.362
6,GGAGAUUCAGAUCCUCAAATT against JAK3,inactive: -0.0926
7,GGAUGUUCGUAUACCAUCATT against CROT,inactive: -0.612
8,GGAACUAUCCAUACAGCGATT against LIPE,inactive: -0.276
9,CUCUACACCGUGUACAUCATT against CHRM4,inactive: -0.856
10,CCACUAAGCACUUCAAUGATT against RASGRF1,inactive: 0
11,GCAACAAUGUUACUCGAUATT against LPHN2,inactive: -0.817
12,GCAUGACUAUGUCAAGAAATT against MCM3,inactive: 0.339
13,GCACUGUGCCCAACUAUGATT against PI4KB,inactive: 0.105
14,GGACCCAUCACUCCCAUUATT against TGIF2,inactive: -0.304
15,AGGGCAUCGACAUUCCGGATT against DUX5,inactive: -0.295
16,CCUCCGUUAUAAACCUGUUTT against SLC19A2,inactive: -0.679
17,CCCUUAAACUAUUAGCCCATT against MYT1L,inactive: -0.43
18,CGGCAAGGAUGCAAGUGAATT against HIC2,inactive: -0.283
19,GAAACCAUCGGGAAGAUUUTT against VWA2,inactive: 0.584
20,CCACUACGUCCUCAAUGUATT against CLSTN1,inactive: 0.0811
21,GGAGAGUAAGGGUCCUAGATT against LINGO4,inactive: 0.388
22,CUAGUGGGCUGUAUCCUUATT against AMIGO1,inactive: 0.175

row,Sequence,median seed-adjusted z-score
1,GAUGAAGAACGGUACCAGATT against EPHA1,inactive: -0.092
2,GGAGCACGAAAGUCAAAGATT against NR3C2,inactive: -0.0918
3,GACUGACUCAUGAUCCAAATT against MAN1A1,inactive: 0
4,GCGUGUUCCCAAUAGUGUATT against OGT,inactive: 0.411
5,GACAAGAUCUUGUAAGCAUTT against USP44,inactive: 0.374
6,UCUGUCUCCUAGAAUCUUATT against ZFP36,inactive: 0.106
7,GGUGAUGAAUUUAGCUUAATT against SERPINI2,inactive: -0.174
8,AGGGAGCAAAUGAACCUGATT against VIP,active: 1.52
9,GGAAUGCACCCAGAUCAAATT against TFAP2D,inactive: 0
10,GGCUAUACCUACAAUAUGUTT against TOX3,inactive: -0.216
11,GAAUUUGUAUGAGAGCAUUTT against CYTH3,inactive: 0.196
12,GGGUAUGAGAUUUCACAUUTT against AFAR3,inactive: 0.0433
13,GGAUGGAACUUAUUGGACUTT against AMD1,inactive: -0.211
14,GCAGCACUGUUACUCAGUUTT against GLRA3,inactive: 0.0585
15,GGCUGUACAUCUGGACCAATT against NFKBIE,inactive: -0.452
16,GGACUAUCUACAUUCCGGATT against AKT3,inactive: -0.0936
17,GACUUUCGACUUUGAUGAATT against TRUB1,inactive: 0.561
18,GAUCGGCCUGAGUCUAAUATT against SLC15A2,inactive: 0.322
19,GGAAGACUCUUUUUAGAGATT against SLC25A20,inactive: -0.183
20,GGUAAAUCUUACAGAUAUATT against ZBTB25,inactive: 0
21,CAAGCGCAAGAGACACUGATT against ALPL,inactive: -0.229
22,CCCUGGAUCUGUUCAGACATT against SLC22A13,inactive: 0.904

row,Sequence,median seed-adjusted z-score
1,CCAUUCUGGUGGACCUGGATT against TUBB3,inactive: 0.208
2,GCACCAGCAUCGUUGUAGATT against CYP4B1,inactive: -0.663
3,CGAUCAACCAAACUCAUUATT against ATP6V1C2,inactive: 0.2
4,CCUGGGCUAUGCAACAAAATT against HAS2,inactive: 0.354
5,GGACAAAUAAUGUAUUUGATT against GSPT1,inactive: -0.761
6,GAGCCUCAGUCACCUCAAATT against PLAGL1,inactive: 0.0885
7,GCUCCGCCUUGGGAAAACATT against APOA1,inactive: -0.239
8,GGACACCAAUAGAGACGGATT against NCALD,inactive: 0
9,CUUUGUCACUGCACCUAAATT against ACE2,inactive: -0.164
10,GCCUUAAUCCCAAAACGAATT against TBX5,inactive: 0.143
11,GAUUCUAUCCAAAUUCCAATT against DMD,inactive: -0.626
12,GGGCGAGUAUUAUGACUAUTT against MYO15A,inactive: 0.0508
13,CCAAGAAGAUGGAUGAGUATT against AHCYL2,inactive: 0.415
14,CAACCUCUGUCAGUAGUCUTT against ZFAND6,inactive: -0.181
15,GACCACAACUUCUUCAGUATT against DHFRL1,inactive: -0.646
16,GGUGUUCGAUGGAGAUGAATT against SMOC1,inactive: 0.0453
17,GCGCAGACGUGAUUGUCAATT against DAO,inactive: -0.00887
18,GCGUGUACACUGAGGAAUATT against MYO19,inactive: 0.0987
19,GGUUCGGAACAGCAAUAUATT against WWP1,inactive: -0.442
20,CCACUGCAAUCGUGUUAUATT against LIMS1,inactive: -0.313

# Single values from the results shown:
# Value of GCAAGAUGCUAUCCAUGCATT against ATN1 under median seed-adjusted z-score: inactive: -0.357
# Value of CAAGCGCAAGAGACACUGATT against ALPL under median seed-adjusted z-score: inactive: -0.229
# Value of GGAGCACGAAAGUCAAAGATT against NR3C2 under median seed-adjusted z-score: inactive: -0.0918
# Value of GAAUUUGUAUGAGAGCAUUTT against CYTH3 under median seed-adjusted z-score: inactive: 0.196
